Source: publication PMC8241737
These are yes or no findings as the source states them, for the method shown. Binding seen in cells or lysates may run through a third protein. Some results given as binding are weak or reduced against the parent protein; the word gives no strength.

Sequences of proteins named here, by UniProt entry; tags and fusion partners are left off. Residues count along the entry.
UniProt Q01097, residues 27-1482: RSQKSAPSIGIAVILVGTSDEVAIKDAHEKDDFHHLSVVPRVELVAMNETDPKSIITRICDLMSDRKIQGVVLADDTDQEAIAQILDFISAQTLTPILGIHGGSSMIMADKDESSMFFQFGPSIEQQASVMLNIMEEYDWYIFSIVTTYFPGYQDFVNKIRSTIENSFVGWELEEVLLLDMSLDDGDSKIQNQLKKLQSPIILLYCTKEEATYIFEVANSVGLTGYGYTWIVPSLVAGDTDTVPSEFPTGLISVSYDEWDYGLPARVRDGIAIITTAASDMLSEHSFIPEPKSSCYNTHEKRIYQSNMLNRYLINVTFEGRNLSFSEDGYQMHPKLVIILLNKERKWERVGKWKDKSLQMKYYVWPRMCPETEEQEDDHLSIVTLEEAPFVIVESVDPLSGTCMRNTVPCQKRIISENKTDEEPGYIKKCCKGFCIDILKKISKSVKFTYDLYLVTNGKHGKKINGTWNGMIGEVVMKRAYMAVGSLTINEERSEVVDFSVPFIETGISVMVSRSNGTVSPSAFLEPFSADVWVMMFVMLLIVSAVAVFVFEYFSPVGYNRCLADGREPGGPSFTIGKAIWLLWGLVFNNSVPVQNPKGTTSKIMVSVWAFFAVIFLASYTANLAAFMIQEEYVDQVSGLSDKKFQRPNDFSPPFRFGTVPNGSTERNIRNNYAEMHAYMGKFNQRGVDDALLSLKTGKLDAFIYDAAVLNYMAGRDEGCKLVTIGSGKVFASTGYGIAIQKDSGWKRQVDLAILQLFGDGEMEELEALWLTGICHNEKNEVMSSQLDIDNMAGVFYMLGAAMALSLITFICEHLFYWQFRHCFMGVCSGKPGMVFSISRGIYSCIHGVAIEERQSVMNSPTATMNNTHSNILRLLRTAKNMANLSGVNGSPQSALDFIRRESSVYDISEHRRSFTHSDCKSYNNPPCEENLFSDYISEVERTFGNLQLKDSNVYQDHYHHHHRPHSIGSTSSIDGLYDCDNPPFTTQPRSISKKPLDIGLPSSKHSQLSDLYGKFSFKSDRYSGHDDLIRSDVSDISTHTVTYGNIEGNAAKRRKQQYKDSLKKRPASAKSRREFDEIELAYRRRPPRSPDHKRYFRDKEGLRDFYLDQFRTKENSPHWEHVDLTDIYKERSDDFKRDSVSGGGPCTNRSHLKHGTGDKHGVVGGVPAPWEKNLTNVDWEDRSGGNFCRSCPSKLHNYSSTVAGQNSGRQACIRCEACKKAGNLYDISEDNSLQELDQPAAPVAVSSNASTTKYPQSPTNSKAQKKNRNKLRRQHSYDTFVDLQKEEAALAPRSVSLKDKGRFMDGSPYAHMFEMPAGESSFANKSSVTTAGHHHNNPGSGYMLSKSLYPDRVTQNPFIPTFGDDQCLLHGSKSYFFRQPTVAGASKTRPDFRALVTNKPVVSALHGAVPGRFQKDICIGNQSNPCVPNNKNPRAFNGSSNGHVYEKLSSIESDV
UniProt Q80YE7: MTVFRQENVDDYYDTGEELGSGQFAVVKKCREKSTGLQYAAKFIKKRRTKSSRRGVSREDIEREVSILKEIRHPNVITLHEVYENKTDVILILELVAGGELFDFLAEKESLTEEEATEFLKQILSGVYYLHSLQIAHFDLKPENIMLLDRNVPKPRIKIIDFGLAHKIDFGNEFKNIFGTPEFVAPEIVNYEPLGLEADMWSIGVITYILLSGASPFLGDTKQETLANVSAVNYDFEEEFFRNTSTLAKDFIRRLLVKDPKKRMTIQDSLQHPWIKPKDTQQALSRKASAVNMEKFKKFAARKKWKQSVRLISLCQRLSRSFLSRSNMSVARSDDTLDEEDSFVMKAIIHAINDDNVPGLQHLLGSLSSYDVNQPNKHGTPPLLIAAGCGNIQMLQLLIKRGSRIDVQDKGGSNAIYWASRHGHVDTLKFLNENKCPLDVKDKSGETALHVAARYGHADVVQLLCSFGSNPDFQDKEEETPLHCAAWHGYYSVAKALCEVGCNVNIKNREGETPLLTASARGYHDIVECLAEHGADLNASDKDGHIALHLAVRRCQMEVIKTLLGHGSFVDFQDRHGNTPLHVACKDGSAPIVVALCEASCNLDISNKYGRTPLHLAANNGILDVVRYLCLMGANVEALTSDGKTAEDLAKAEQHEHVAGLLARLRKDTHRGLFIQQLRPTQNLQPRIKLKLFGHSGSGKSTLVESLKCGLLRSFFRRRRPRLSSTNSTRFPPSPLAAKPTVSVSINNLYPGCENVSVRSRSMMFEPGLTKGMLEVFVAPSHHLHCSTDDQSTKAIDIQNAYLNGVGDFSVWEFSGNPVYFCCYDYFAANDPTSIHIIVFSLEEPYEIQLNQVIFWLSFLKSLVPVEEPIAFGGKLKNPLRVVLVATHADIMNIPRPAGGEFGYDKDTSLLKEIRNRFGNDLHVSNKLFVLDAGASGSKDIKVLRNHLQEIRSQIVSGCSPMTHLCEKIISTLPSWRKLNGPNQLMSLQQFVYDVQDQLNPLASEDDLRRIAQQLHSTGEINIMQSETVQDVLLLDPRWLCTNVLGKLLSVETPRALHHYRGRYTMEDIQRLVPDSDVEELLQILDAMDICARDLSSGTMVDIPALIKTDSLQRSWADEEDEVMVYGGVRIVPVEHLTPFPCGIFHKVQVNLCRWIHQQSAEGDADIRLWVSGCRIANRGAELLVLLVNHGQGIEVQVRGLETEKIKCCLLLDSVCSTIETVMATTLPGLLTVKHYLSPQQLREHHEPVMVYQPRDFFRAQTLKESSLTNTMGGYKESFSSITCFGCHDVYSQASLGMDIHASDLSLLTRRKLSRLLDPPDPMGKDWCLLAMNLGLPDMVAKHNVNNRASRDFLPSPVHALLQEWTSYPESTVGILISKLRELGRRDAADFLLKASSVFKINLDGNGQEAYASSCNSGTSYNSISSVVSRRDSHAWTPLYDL

Biological target: NR2B subunit of the N-methyl-D aspartate receptor (NMDAR) (mouse (endogenous in mouse brain)) (UniProt Q01097)
Assay: co-IP; mouse brain (hippocampus) lysates incubated with the corresponding antibodies 3 h at 4 °C, protein A/G-Sepharose 1 h, immunoblot; mice given saline, a single convulsive dose of PTZ (50 mg/kg, tissue 3 min after) or repeated subconvulsive PTZ (35 mg/kg, tissue after the fourth injection)

Question: With “Death-associated protein kinase 1 (from UniProt Q80YE7 1-1442) (enzyme)” as the substance, how does the binding read?
Answer: Its binding is “binds”.
